Assay results as given in article PMC5338821, “Structure determination of a major facilitator peptide transporter: Inward facing PepTSt from Streptococcus thermophilus crystallized in space group P3_(1)21” (PLoS ONE, 2017).
These are yes or no findings as the source states them, for the method shown.

Key:
[1] = target: peptide transporter PepTSt from Streptococcus thermophilus (wild-type) (Streptococcus thermophilus) (UniProt Q5M4H8); assay: SEC; PepTSt solubilized and purified in DM (0.2%), final SEC step; both purified
[2] = target: peptide transporter PepTSt from Streptococcus thermophilus (wild-type) (Streptococcus thermophilus) (UniProt Q5M4H8); assay: SEC; PepTSt purified in DM up to the IMAC step, detergent exchanged to NM (0.4%) in the SEC step; both purified
[3] = target: peptide transporter PepTSt from Streptococcus thermophilus (wild-type) (Streptococcus thermophilus) (UniProt Q5M4H8); assay: crystal structure; space group P3_(1)21; protein in 0.4% NM, sitting-drop vapor diffusion, 277 K, 30% PEG550 MME, HEPES pH 8.0, 1.2% Fos-Choline 10; both purified

B1: peptide transporter PepTSt from Streptococcus thermophilus (wild-type) (natural protein)
chain: MEDKGKTFFGQPLGLSTLFMTEMWERFSYYGMRAILLYYMWFLISTGDLHITRATAASIMAIYASMVYLSGTIGGFVADRIIGARPAVFWGGVLIMLGHIVLALPFGASALFGSIILIIIGTGFLKPNVSTLVGTLYDEHDRRRDAGFSIFVFGINLGAFIAPLIVGAAQEAAGYHVAFSLAAIGMFIGLLVYYFGGKKTLDPHYLRPTDPLAPEEVKPLLVKVSLAVAGFIAIIVVMNLVGWNSLPAYINLLTIVAIAIPVFYFAWMISSVKVTSTEHLRVVSYIPLFIAAVLFWAIEEQGSVVLATFAAERVDSSWFPVSWFQSLNPLFIMLYTPFFAWLWTAWKKNQPSSPTKFAVGLMFAGLSFLLMAIPGALYGTSGKVSPLWLVGSWALVILGEMLISPVGLSVTTKLAPKAFNSQMMSMWFLSSSVGSALNAQLVTLYNAKSEVAYFSYFGLGSVVLGIVLVFLSKRIQGLMQGVE
notes: PepTSt, major facilitator superfamily peptide transporter of Streptococcus thermophilus; Dimer in LMNG and DDM, monomer in DM and NM; also called Ce27; source: Escherichia coli C41, membrane solubilization, purified (IMAC, SEC) in DDM, DM, NM or LMNG; not shown: hexahistidine, C-terminal, cleaved
Question: B1 was tested. Which binding [1] did it give?
Answer: no binding (condition: in DM (0.2%))

Question: And the binding [2]?
Answer: no binding (condition: in NM (0.4%))

Question: What about the binding [3] of the same binder?
Answer: no binding (condition: purified and crystallized in NM)
